From patent publication CN112661849A
These are yes or no findings as the source states them, for the method shown. Some binding calls cover weakened binding; strength is not graded here.

Target: T1, 艰难梭菌谷氨酸脱氢酶(GDH) (艰难梭菌 (Clostridium difficile)) (UniProt P27346)
T1 sequence (looked up): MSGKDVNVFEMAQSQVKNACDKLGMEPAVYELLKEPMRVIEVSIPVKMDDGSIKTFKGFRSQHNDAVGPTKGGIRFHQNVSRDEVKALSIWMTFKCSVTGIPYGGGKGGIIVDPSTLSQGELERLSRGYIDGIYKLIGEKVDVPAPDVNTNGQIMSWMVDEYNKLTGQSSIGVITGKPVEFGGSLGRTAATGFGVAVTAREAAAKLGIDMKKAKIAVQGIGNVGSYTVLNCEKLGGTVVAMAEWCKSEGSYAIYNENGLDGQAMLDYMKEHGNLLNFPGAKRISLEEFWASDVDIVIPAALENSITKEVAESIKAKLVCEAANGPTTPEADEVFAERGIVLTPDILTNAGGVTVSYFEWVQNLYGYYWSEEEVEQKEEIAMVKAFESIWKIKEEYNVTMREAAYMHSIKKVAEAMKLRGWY
Assay: sandwich ELISA on stool specimens of CDI patients, 3B12 coated at 1 μg/mL as capture, 5E3-HRP as detector, P/N of OD450

B1: 3B12单抗 (antibody, V domains shown)
VH: EVQLQQSGPELVKPGASVEMSCKASGYTFTSYVMHWVKQKPGQGLEWIGYINPYNYDTKYNEKFKGKASLTSDKSSSTAYMELSSLTSEDSAVYYCTRGGDFDYWGQGTTLTVSS
VL: QIVLTQSPAIMSASLGERVTMTCTASSSVYPSYLYWYQQKPGSSPKLWIYTTSNLASGVPARFSGSGSGTSYSLTISSMEAEDAATYYCHQYHRSRTFGGGTKLEIKR
**Q.** For B1, which binding is on record?
**A.** binds
